The text below walks through data of article doi:10.1101/2024.11.19.624272.

Protein sequences, listed by entry. Tags and fused reporters are not part of them. Lines headed by an entry give the natural chain unless they say otherwise; changes in a name come on top. Residues count along the entry.
UniProt O00481, residues 30-513: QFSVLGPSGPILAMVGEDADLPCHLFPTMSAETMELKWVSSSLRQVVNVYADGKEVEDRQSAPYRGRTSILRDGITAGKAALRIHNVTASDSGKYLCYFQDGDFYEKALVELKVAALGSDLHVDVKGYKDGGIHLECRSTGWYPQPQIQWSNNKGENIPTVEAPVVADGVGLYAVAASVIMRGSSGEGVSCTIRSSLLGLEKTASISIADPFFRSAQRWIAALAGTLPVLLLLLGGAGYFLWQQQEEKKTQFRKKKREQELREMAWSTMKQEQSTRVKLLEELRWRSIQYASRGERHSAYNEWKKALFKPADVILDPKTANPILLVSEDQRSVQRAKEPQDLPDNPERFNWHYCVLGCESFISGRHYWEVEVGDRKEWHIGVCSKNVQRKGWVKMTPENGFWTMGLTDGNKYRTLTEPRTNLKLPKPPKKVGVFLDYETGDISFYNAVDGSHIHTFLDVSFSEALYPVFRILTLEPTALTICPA
UniProt Q5VZK9: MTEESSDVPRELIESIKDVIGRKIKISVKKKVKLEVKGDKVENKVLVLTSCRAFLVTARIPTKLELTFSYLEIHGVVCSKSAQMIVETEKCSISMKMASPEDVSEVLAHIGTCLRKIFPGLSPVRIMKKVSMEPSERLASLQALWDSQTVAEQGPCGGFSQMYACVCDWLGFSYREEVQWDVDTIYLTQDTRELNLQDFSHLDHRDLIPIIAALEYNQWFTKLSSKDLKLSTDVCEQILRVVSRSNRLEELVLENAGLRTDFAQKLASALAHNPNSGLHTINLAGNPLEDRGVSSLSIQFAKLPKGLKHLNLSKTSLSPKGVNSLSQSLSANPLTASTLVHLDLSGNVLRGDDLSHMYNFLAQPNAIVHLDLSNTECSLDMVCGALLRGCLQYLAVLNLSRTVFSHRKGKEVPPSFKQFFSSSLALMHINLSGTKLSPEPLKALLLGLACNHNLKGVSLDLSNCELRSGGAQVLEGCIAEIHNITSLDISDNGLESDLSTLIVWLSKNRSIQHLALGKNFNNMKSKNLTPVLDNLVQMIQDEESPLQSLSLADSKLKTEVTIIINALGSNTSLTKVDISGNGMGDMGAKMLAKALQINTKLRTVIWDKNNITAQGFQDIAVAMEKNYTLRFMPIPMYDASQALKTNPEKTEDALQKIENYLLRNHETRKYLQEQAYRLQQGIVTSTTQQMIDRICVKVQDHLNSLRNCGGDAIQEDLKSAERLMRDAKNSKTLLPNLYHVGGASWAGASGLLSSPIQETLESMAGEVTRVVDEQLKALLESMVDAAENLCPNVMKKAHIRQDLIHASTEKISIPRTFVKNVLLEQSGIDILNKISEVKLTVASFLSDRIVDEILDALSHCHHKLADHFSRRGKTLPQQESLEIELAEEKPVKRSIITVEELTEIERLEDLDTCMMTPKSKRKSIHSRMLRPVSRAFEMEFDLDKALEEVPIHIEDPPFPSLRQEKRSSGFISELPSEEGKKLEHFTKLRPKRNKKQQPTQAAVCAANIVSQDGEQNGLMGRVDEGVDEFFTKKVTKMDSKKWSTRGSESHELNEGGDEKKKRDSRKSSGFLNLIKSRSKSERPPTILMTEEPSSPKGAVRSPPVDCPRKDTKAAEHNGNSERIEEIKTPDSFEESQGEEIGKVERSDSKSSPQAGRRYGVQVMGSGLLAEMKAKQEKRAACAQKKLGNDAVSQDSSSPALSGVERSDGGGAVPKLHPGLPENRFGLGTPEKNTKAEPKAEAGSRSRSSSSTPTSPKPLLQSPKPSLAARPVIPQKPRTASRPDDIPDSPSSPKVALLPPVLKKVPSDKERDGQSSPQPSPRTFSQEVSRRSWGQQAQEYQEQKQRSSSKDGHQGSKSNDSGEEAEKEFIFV
UniProt Q58EX2, residues 21-2172: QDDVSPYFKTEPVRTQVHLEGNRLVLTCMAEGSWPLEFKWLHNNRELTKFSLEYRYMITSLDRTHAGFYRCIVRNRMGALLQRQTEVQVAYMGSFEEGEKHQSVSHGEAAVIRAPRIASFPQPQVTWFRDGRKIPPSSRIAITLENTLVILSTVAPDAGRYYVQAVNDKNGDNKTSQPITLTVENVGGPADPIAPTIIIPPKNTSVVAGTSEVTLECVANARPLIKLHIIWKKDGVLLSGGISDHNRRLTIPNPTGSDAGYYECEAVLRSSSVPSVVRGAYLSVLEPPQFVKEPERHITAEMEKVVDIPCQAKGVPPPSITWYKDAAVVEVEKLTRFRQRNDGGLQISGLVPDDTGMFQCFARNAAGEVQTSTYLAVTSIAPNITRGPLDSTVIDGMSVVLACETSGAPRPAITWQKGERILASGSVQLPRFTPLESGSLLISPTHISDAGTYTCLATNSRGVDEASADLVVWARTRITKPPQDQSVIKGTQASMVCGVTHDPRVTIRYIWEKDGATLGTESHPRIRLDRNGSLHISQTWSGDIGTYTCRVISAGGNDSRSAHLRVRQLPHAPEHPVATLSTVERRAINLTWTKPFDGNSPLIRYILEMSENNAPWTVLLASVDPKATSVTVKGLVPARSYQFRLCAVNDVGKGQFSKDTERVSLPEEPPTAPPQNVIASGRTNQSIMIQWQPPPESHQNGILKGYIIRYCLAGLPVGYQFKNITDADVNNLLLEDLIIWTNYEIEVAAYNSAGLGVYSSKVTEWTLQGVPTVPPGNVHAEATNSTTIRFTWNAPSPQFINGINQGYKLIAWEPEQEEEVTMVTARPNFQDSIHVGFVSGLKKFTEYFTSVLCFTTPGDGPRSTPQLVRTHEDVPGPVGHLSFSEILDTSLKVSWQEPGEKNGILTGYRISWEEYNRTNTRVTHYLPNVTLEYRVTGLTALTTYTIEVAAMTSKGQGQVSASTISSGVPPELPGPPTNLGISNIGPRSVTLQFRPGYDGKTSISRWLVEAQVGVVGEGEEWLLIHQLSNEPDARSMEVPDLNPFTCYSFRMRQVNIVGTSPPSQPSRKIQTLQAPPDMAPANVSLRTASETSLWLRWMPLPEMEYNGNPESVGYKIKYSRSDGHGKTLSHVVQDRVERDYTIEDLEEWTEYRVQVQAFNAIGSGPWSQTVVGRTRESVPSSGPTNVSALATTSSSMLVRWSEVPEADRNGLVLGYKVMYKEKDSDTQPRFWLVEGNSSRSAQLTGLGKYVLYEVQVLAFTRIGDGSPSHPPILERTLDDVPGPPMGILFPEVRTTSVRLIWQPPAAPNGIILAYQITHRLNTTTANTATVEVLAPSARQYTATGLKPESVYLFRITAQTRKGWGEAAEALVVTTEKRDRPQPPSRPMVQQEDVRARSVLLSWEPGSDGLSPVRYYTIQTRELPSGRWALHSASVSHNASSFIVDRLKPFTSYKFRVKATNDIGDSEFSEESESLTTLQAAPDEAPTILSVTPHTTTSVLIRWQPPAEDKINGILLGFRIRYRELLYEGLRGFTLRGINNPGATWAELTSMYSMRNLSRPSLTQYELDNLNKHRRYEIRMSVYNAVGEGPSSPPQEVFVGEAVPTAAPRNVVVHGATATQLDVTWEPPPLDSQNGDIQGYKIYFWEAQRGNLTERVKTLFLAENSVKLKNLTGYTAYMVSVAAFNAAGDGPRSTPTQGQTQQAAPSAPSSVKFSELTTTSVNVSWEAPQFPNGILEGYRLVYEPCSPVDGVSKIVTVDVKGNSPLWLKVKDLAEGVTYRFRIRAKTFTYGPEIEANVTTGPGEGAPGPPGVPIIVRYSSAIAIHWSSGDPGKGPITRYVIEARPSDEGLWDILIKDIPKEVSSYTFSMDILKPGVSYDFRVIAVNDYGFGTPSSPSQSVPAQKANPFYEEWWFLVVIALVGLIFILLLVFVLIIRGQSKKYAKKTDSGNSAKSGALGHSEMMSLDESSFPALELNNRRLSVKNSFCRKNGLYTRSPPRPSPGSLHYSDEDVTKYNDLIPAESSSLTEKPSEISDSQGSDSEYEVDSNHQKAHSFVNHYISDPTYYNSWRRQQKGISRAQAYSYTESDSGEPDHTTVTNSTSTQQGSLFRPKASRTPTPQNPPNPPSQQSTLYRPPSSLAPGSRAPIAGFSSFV
UniProt Q9C0D5: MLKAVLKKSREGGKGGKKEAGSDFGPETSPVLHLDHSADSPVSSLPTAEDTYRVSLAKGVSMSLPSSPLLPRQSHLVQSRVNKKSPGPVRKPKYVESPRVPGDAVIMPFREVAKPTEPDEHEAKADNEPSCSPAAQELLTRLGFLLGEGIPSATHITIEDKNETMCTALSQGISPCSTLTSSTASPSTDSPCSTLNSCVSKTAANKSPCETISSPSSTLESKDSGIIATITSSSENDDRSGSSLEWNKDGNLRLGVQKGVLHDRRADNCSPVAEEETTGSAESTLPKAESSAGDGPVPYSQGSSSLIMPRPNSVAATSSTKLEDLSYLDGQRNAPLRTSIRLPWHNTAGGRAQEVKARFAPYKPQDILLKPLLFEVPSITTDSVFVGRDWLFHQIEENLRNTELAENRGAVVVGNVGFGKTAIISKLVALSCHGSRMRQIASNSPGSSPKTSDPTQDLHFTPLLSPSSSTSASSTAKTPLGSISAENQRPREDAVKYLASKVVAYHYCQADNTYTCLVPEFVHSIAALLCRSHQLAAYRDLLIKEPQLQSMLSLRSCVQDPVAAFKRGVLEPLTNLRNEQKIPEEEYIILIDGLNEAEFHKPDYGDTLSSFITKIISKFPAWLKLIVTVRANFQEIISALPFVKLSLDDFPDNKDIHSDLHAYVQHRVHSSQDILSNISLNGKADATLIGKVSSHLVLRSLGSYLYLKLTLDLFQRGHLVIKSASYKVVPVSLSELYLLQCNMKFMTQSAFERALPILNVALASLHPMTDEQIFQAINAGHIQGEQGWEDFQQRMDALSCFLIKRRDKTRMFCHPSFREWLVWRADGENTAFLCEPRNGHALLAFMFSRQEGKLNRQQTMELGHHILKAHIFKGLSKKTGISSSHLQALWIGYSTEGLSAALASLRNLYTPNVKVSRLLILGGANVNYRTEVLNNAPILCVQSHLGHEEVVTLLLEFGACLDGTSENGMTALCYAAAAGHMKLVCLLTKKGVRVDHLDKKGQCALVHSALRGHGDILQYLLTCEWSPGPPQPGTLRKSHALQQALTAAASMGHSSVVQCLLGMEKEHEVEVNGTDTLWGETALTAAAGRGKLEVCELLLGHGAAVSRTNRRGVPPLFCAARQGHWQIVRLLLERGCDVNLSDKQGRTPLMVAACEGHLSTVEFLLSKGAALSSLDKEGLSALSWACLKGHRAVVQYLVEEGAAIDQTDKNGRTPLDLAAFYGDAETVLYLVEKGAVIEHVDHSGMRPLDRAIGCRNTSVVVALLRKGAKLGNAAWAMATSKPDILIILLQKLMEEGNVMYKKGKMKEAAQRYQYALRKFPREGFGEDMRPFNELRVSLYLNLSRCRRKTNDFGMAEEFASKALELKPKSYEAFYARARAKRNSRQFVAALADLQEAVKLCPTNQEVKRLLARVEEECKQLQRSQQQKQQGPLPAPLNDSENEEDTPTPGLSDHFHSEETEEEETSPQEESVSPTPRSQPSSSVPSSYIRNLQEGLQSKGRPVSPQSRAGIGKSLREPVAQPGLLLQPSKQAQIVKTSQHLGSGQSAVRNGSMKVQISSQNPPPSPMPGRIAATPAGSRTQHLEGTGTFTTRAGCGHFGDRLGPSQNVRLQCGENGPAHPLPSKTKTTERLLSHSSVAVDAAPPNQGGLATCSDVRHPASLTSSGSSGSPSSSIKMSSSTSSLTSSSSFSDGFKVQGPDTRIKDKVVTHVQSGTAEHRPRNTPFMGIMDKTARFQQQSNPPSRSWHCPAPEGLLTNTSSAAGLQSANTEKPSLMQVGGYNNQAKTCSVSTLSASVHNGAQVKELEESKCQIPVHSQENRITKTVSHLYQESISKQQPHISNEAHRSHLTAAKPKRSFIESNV

The target of the experiment is BTN3A1-BirA(R118G)-HA (human) (UniProt O00481). Briefly: proximity labelling.

No constants are given. Whether binding was seen depends on the method and setting. Binding seen in cells or lysates may run through a third protein. These calls come from enrichment with a bait or labelling near it, and not all partners need be listed.

Regarding CARMIL1 (from UniProt Q5VZK9 1-1371), the binding entry was “binds”.
The entry for SDK2 (from UniProt Q58EX2 21-2172) is “binds”; for TANC1 (from UniProt Q9C0D5 1-1861) it is “binds”.

B1: PA2G4 (protein, UniProt Q9UQ80 1-394)
chain: MSGEDEQQEQTIAEDLVVTKYKMGGDIANRVLRSLVEASSSGVSVLSLCEKGDAMIMEETGKIFKKEKEMKKGIAFPTSISVNNCVCHFSPLKSDQDYILKEGDLVKIDLGVHVDGFIANVAHTFVVDVAQGTQVTGRKADVIKAAHLCAEAALRLVKPGNQNTQVTEAWNKVAHSFNCTPIEGMLSHQLKQHVIDGEKTIIQNPTDQQKKDHEKAEFEVHEVYAVDVLVSSGEGKAKDAGQRTTIYKRDPSKQYGLKMKTSRAFFSEVERRFDAMPFTLRAFEDEKKARMGVVECAKHELLQPFNVLYEKEGEFVAQFKFTVLLMPNGPMRITSGPFEPDLYKSEMEVQDAELKALLQSSASRKTQKKKKKKASKTAENATSGETLEENEAGD
In the case of B1, the binding entry is reported as “binds”.

B2: SYNJ2 (protein, UniProt O15056 1-1496)
chain: MALSKGLRLLGRLGAEGDCSVLLEARGRDDCLLFEAGTVATLAPEEKEVIKGQYGKLTDAYGCLGELRLKSGGTSLSFLVLVTGCTSVGRIPDAEIYKITATDFYPLQEEAKEEERLIALKKILSSGVFYFSWPNDGSRFDLTVRTQKQGDDSSEWGNSFFWNQLLHVPLRQHQVSCCDWLLKIICGVVTIRTVYASHKQAKACLVSRVSCERTGTRFHTRGVNDDGHVSNFVETEQMIYMDDGVSSFVQIRGSVPLFWEQPGLQVGSHHLRLHRGLEANAPAFDRHMVLLKEQYGQQVVVNLLGSRGGEEVLNRAFKKLLWASCHAGDTPMINFDFHQFAKGGKLEKLETLLRPQLKLHWEDFDVFTKGENVSPRFQKGTLRMNCLDCLDRTNTVQSFIALEVLHLQLKTLGLSSKPIVDRFVESFKAMWSLNGHSLSKVFTGSRALEGKAKVGKLKDGARSMSRTIQSNFFDGVKQEAIKLLLVGDVYGEEVADKGGMLLDSTALLVTPRILKAMTERQSEFTNFKRIRIAMGTWNVNGGKQFRSNVLRTAELTDWLLDSPQLSGATDSQDDSSPADIFAVGFEEMVELSAGNIVNASTTNKKMWGEQLQKAISRSHRYILLTSAQLVGVCLYIFVRPYHVPFIRDVAIDTVKTGMGGKAGNKGAVGIRFQFHSTSFCFICSHLTAGQSQVKERNEDYKEITQKLCFPMGRNVFSHDYVFWCGDFNYRIDLTYEEVFYFVKRQDWKKLLEFDQLQLQKSSGKIFKDFHEGAINFGPTYKYDVGSAAYDTSDKCRTPAWTDRVLWWRKKHPFDKTAGELNLLDSDLDVDTKVRHTWSPGALQYYGRAELQASDHRPVLAIVEVEVQEVDVGARERVFQEVSSFQGPLDATVVVNLQSPTLEEKNEFPEDLRTELMQTLGSYGTIVLVRINQGQMLVTFADSHSALSVLDVDGMKVKGRAVKIRPKTKDWLKGLREEIIRKRDSMAPVSPTANSCLLEENFDFTSLDYESEGDILEDDEDYLVDEFNQPGVSDSELGGDDLSDVPGPTALAPPSKSPALTKKKQHPTYKDDADLVELKRELEAVGEFRHRSPSRSLSVPNRPRPPQPPQRPPPPTGLMVKKSASDASISSGTHGQYSILQTARLLPGAPQQPPKARTGISKPYNVKQIKTTNAQEAEAAIRCLLEARGGASEEALSAVAPRDLEASSEPEPTPGAAKPETPQAPPLLPRRPPPRVPAIKKPTLRRTGKPLSPEEQFEQQTVHFTIGPPETSVEAPPVVTAPRVPPVPKPRTFQPGKAAERPSHRKPASDEAPPGAGASVPPPLEAPPLVPKVPPRRKKSAPAAFHLQVLQSNSQLLQGLTYNSSDSPSGHPPAAGTVFPQGDFLSTSSATSPDSDGTKAMKPEAAPLLGDYQDPFWNLLHHPKLLNNTWLSKSSDPLDSGTRSPKRDPIDPVSAGASAAKAELPPDHEHKTLGHWVTISDQEKRTALQVFDPLAKT
Take B2: the binding entry is reported as “binds”.

B3: PKP2 (protein, UniProt Q99959 1-881)
chain: MAAPGAPAEYGYIRTVLGQQILGQLDSSSLALPSEAKLKLAGSSGRGGQTVKSLRIQEQVQQTLARKGRSSVGNGNLHRTSSVPEYVYNLHLVENDFVGGRSPVPKTYDMLKAGTTATYEGRWGRGTAQYSSQKSVEERSLRHPLRRLEISPDSSPERAHYTHSDYQYSQRSQAGHTLHHQESRRAALLVPPRYARSEIVGVSRAGTTSRQRHFDTYHRQYQHGSVSDTVFDSIPANPALLTYPRPGTSRSMGNLLEKENYLTAGLTVGQVRPLVPLQPVTQNRASRSSWHQSSFHSTRTLREAGPSVAVDSSGRRAHLTVGQAAAGGSGNLLTERSTFTDSQLGNADMEMTLERAVSMLEADHMLPSRISAAATFIQHECFQKSEARKRVNQLRGILKLLQLLKVQNEDVQRAVCGALRNLVFEDNDNKLEVAELNGVPRLLQVLKQTRDLETKKQITDHTVNLRSRNGWPGAVAHACNPSTLGGQGGRITRSGVRDQPDQHGLLWNLSSNDKLKNLMITEALLTLTENIIIPFSGWPEGDYPKANGLLDFDIFYNVTGCLRNMSSAGADGRKAMRRCDGLIDSLVHYVRGTIADYQPDDKATENCVCILHNLSYQLEAELPEKYSQNIYIQNRNIQTDNNKSIGCFGSRSRKVKEQYQDVPMPEEKSNPKGVEWLWHSIVIRMYLSLIAKSVRNYTQEASLGALQNLTAGSGPMPTSVAQTVVQKESGLQHTRKMLHVGDPSVKKTAISLLRNLSRNLSLQNEIAKETLPDLVSIIPDTVPSTDLLIETTASACYTLNNIIQNSYQNARDLLNTGGIQKIMAISAGDAYASNKASKAASVLLYSLWAHTELHHAYKKAQFKKTDFVNSRTAKAYHSLKD
As to B3, the binding result is recorded as “binds”.
